Data as given in PubChem BioAssay AID504791 (Drosophila RNAi Screening Center, 2011).

Screen: 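Genes whose knock-down strengthens or weakens small-RNA reporter silencing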 (primary screen)
Cells: Drosophila S2-derived reporter cells
Reagent: long dsRNA against Drosophila genes, about 150-250 ng dsRNA per well (siRNA assay); about 80-120 ng (miRNA assay)
Duration: about 5 days (siRNA assay); about 4 days (miRNA assay)
Conditions: copper sulfate induction of reporters: 25 µM (siRNA assay); 200 mM stated (miRNA assay), 1-2 days before reading
Measurement: 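Dual luciferase assay: Renilla to firefly signal ratio in each well, scaled to the mean ratio of its plate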
Units: stable assay Renilla, run 1 in luminescence; stable assay firefly, run 1 in luminescence
Hit rule: 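First-pass picks had plate-scaled ratios over 1.5 for the siRNA assay, over 1.6 for the miRNA assay, or under 0.6; two distinct dsRNAs had to score alike on retest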
In all, the deposit lists about 23,000 reagents; below is an unselected part of those with a known target gene and a result. Over the whole deposit, 199 (0.86%) are marked active. 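Plate-scaled ratios behind the calls are not deposited; printed light signals are raw; many rows marked increased or decreased are still called inactive.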 Reagents against one gene are numbered here. Not stated in the record: the direction of the score.

Against Cpr97Eb (Cuticular protein 97Eb) the deposit lists stable assay Renilla, run 1 = 6107; stable assay firefly, run 1 = 3.70e5; inactive.
After knock-down of CG13022, the record shows stable assay Renilla, run 1 = 7702; stable assay firefly, run 1 = 3.35e5; inactive.
Knock-down of Arp3 (Actin-related protein 3) came out at: stable assay Renilla, run 1 = 8974; stable assay firefly, run 1 = 4.69e5; inactive.
For Lis-1 (Lissencephaly-1), the entry reads stable assay Renilla, run 1 = 6750; stable assay firefly, run 1 = 3.21e5; inactive.
Silencing of CG17633 gave: stable assay Renilla, run 1 = 6926; stable assay firefly, run 1 = 3.68e5; inactive.
For qjt (quijote), the values are stable assay Renilla, run 1 = 6878; stable assay firefly, run 1 = 3.56e5; inactive.
Against CG7407 the deposit lists stable assay Renilla, run 1 = 7863; stable assay firefly, run 1 = 3.70e5; inactive.
E(spl)mdelta-HLH (Enhancer of split mdelta, helix-loop-helix) scored stable assay Renilla, run 1 = 6187; stable assay firefly, run 1 = 3.32e5; inactive.
Knock-down of CG6465 came out at: stable assay Renilla, run 1 = 6955; stable assay firefly, run 1 = 3.72e5; inactive.
PSMG1 (Proteasome assembly chaperone 1) gave stable assay Renilla, run 1 = 9226; stable assay firefly, run 1 = 3.94e5; inactive.
For Nrg (Neuroglian) #1, the entry reads stable assay Renilla, run 1 = 4596; stable assay firefly, run 1 = 4.11e5; inactive.
Against Nrg (Neuroglian) #2 the deposit lists stable assay Renilla, run 1 = 8695; stable assay firefly, run 1 = 6.28e5; inactive.
TotB (Turandot B) gave stable assay Renilla, run 1 = 7110; stable assay firefly, run 1 = 2.76e5; inactive.
After knock-down of CG15128, the record shows stable assay Renilla, run 1 = 5003; stable assay firefly, run 1 = 2.44e5; inactive.
Against CG30338 the deposit lists stable assay Renilla, run 1 = 5540; stable assay firefly, run 1 = 4.31e5; inactive.
For Nhe3 (Na[+]/H[+] hydrogen exchanger 3), the values are stable assay Renilla, run 1 = 6998; stable assay firefly, run 1 = 3.80e5; inactive.
With knock-down of Mst36Fa (Male-specific transcript 36Fa), the record shows stable assay Renilla, run 1 = 9211; stable assay firefly, run 1 = 6.32e5; inactive.
With knock-down of CG17267, the record shows stable assay Renilla, run 1 = 6962; stable assay firefly, run 1 = 2.93e5; inactive.
After knock-down of GstE3 (Glutathione S transferase E3), the screen gave stable assay Renilla, run 1 = 5572; stable assay firefly, run 1 = 3.10e5; inactive.
